Measured values reported in article PMC6243087.
Results are given in words; binding and its absence hold for the method and conditions named. Binding seen in cells or lysates may run through a third protein. Some results given as binding are weak or reduced against the parent protein; the word gives no strength. Where a sequence is shown, tags or fusion partners need not be part of it.

Sequences of proteins named here, by UniProt entry; tags and fusion partners are left off.
UniProt Q5S007: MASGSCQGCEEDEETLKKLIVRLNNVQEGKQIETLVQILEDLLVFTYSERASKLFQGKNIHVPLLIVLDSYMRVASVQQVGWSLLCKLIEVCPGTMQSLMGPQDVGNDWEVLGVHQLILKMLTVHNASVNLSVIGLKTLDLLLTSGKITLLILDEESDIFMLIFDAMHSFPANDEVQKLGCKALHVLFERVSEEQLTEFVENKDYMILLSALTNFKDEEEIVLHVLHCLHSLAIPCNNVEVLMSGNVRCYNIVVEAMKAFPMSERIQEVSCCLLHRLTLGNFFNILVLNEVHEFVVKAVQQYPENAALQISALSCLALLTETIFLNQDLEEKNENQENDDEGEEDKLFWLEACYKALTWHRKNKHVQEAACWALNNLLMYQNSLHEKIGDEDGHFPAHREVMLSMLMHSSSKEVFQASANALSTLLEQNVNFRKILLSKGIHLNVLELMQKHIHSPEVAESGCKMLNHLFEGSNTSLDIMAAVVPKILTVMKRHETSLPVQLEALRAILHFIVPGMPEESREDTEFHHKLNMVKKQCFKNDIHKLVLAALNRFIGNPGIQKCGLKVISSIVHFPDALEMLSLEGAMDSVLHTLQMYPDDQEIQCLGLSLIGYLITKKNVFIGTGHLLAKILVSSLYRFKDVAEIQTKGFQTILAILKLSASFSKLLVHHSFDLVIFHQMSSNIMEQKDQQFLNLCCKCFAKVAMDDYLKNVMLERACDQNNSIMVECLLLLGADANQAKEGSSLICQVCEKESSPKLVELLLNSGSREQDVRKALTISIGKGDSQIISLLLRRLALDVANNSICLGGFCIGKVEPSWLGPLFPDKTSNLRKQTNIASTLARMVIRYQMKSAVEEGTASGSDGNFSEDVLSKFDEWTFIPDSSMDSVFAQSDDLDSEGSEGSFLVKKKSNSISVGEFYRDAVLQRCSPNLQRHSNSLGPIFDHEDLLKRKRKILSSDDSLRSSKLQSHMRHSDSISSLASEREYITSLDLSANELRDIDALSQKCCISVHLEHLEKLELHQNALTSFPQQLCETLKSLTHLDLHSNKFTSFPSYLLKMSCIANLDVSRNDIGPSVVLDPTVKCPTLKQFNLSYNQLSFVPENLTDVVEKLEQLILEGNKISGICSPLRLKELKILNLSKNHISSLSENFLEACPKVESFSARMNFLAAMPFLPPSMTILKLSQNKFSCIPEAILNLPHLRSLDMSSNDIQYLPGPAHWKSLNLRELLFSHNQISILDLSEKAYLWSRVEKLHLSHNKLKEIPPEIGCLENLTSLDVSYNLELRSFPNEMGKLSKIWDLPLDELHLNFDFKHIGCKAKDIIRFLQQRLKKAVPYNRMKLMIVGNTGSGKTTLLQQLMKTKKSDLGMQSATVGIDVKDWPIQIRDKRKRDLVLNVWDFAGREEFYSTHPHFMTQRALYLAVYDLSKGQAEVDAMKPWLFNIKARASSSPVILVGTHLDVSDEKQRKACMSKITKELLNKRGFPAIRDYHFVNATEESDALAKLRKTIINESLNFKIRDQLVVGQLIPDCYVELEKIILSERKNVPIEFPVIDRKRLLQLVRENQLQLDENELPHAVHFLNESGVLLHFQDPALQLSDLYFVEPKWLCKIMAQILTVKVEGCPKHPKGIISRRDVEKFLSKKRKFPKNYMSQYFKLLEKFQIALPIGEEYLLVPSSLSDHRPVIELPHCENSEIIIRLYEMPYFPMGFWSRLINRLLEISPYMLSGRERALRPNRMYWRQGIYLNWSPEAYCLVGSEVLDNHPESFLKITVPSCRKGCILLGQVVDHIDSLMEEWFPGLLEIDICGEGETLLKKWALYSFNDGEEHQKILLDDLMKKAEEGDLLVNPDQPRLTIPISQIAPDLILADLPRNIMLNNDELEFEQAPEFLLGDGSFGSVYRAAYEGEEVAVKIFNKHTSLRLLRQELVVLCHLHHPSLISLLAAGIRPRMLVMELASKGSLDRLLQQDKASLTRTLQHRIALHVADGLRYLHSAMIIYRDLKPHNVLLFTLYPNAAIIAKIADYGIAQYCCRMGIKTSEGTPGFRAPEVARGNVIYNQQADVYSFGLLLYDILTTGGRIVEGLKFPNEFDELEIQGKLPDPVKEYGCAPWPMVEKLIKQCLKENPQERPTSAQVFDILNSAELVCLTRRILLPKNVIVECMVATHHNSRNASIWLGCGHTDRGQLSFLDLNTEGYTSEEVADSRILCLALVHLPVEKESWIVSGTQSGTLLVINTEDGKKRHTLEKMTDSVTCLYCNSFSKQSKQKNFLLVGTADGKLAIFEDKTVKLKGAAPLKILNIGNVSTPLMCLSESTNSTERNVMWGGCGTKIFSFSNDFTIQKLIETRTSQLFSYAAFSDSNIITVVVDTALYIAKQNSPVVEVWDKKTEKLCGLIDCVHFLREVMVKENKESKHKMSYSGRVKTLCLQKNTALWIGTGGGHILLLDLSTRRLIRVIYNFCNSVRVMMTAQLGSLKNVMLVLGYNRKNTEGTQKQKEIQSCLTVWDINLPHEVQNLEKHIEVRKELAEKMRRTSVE
UniProt P51149: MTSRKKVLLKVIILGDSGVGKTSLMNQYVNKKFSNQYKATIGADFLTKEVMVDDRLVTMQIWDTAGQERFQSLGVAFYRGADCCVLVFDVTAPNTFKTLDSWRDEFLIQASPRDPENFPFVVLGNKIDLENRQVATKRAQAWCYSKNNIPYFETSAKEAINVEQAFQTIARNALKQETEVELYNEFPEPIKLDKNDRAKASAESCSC

Biological target: GFP-tagged wildtype human LRRK2 (human) (UniProt Q5S007)
Assay: co-IP; HEK293T cells co-transfected with GFP-tagged LRRK2 constructs and 3xFlag-tagged RAB constructs; lysis in 50 mM Tris-HCl pH 7.6, 150 mM NaCl, 2 mM MgCl2, 1% Triton-X100, 1 mM DTT; immunoprecipitation with polyclonal anti-GFP antibody and protein G Sepharose at 4°C; blot for GFP and flag; cells treated with 100 nM MLi2 for 60 min where indicated

binding | Molecule
no binding | 3xFlag-tagged RAB7A (from UniProt P51149 1-207)
binds | 3xFlag-tagged RAB7L1 (protein, UniProt O14966 1-203) MGSRDHLFKVLVVGDAAVGKTSLVQRYSQDSFSKHYKSTVGVDFALKVLQWSDYEIVRLQLWDIAGQERFTSMTRLYYRDASACVIMFDVTNATTFSNSQRWKQDLDSKLTLPNGEPVPCLLLANKCDLSPWAVSRDQIDRFSKENGFTGWTETSVKENKNINEAMRVLIEKMMRNSTEDIMSLSTQGDYINLQTKSSSWSCC
